For the assay, the target named is apoptosis signal-regulating kinase1 (UniProt Q99683). In words: co-IP; co-immunoprecipitation assay (Fig. 4f); cells, antibodies and direction of the precipitation not described.

The chains behind the UniProt entries cited, without tags or fusion partners.
UniProt Q99683: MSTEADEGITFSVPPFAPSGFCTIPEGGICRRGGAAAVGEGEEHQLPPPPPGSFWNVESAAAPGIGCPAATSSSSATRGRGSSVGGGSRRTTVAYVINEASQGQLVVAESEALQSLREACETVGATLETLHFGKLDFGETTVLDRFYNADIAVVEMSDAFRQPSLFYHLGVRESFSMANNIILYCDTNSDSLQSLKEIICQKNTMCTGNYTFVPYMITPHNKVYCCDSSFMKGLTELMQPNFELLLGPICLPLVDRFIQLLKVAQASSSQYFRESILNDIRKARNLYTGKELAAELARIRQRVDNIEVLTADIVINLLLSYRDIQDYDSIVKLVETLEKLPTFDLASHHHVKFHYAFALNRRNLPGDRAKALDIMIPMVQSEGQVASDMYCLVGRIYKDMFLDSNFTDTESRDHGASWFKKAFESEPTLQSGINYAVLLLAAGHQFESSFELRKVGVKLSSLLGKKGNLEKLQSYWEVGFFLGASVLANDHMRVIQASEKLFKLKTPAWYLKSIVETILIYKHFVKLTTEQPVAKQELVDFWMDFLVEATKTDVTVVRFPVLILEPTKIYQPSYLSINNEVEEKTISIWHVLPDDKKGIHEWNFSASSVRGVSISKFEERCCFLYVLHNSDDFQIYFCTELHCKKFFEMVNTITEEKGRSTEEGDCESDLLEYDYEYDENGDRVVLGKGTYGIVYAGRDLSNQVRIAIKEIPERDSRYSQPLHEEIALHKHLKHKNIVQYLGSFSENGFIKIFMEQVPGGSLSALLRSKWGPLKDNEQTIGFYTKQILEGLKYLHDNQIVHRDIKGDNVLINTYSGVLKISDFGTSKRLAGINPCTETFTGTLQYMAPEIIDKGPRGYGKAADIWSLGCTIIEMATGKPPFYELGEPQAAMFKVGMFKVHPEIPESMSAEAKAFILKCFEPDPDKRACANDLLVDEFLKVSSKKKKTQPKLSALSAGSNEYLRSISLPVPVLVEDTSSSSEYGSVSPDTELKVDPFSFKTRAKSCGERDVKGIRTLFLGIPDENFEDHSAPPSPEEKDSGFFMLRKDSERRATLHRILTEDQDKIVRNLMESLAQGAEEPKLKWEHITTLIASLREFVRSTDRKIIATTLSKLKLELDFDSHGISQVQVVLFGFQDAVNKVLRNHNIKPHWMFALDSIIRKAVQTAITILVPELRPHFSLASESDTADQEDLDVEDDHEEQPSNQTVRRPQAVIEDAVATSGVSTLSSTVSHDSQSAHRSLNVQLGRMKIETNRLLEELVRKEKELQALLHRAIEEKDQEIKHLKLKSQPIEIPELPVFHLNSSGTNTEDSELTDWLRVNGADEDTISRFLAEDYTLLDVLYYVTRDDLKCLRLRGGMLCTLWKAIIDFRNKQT

These are yes or no findings as the source states them, for the method shown. In cells and extracts the contact can be indirect. Some binding calls cover weakened binding; strength is not graded here.

B1: Glutathione S-transferase Mu 2 (enzyme, UniProt P28161-2 1-191)
chain: MPMTLGYWNIRGLAHSIRLLLEYTDSSYEEKKYTMGDAPDYDRSQWLNEKFKLGLDFPNLPYLIDGTHKITQSNAILRYIARKHNLCGESEKEQIREDILENQFMDSRMQLAKLCYDPDFEKLKPEYLQALPEMLKLYSQFLGKQPWFLGDKITFVDFIAYDVLERNQVFEPSCLDAFPNLKDFISRFEHS
As for B1, the binding result is given as “binds”.

These data come from article PMC8986781.
